Results published in patent US6794414B1, “Method and compositions for treating diseases mediated by transglutaminase activity” (Yeda Research and Development Co. Ltd., priority 1998, dated 2004).
No constants are given. Whether binding was seen depends on the method and setting. Some binding calls cover weakened binding; strength is not graded here.

The chains behind the UniProt entries cited, without tags or fusion partners. Residues count along the entry.
UniProt P42858, residues 1-310: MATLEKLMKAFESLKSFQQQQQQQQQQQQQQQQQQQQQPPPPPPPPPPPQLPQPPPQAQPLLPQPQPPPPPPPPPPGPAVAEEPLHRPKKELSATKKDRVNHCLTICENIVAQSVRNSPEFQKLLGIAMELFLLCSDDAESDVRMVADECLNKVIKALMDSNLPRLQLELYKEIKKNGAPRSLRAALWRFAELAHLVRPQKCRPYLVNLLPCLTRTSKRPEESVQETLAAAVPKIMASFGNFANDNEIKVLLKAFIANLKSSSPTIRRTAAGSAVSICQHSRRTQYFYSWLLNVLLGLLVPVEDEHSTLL

Legend:
httQ23 (310 amino acids) [1] = target: httQ23 (310 amino acids) (UniProt P42858); assay: Western blot, co-migration with 35S labelled htt aggregates
httQ23 (310 amino acids) [2] = target: httQ23 (310 amino acids) (UniProt P42858); assay: Western blot of a gel parallel to the 35S gel

binding (httQ23 (310 amino acids) [1]): binds | binding (httQ23 (310 amino acids) [2]): binds
B1: guinea pig liver TGase (Sigma) (enzyme, UniProt P08587 2-690, looked up)
chain: AEDLILERCDLQLEVNGRDHRTADLCRERLVLRRGQPFWLTLHFEGRGYEAGVDTLTFNAVTGPDPSEEAGTMARFSLSSAVEGGTWSASAVDQQDSTVSLLLSTPADAPIGLYRLSLEASTGYQGSSFVLGHFILLYNPRCPADAVYMDSDQERQEYVLTQQGFIYQGSAKFINGIPWNFGQFEDGILDICLMLLDTNPKFLKNAGQDCSRRSRPVYVGRVVSAMVNCNDDQGVLQGRWDNNYSDGVSPMSWIGSVDILRRWKDYGCQRVKYGQCWVFAAVACTVLRCLGIPTRVVTNFNSAHDQNSNLLIEYFRNESGEIEGNKSEMIWNFHCWVESWMTRPDLEPGYEGWQALDPTPQEKSEGTYCCGPVPVRAIKEGHLNVKYDAPFVFAEVNADVVNWIRQKDGSLRKSINHLVVGLKISTKSVGRDEREDITHTYKYPEGSEEEREAFVRANHLNKLATKEEAQEETGVAMRIRVGQNMTMGSDFDIFAYITNGTAESHECQLLLCARIVSYNGVLGPVCSTNDLLNLTLDPFSENSIPLHILYEKYGDYLTESNLIKVRGLLIEPAANSYVLAERDIYLENPEIKIRVLGEPKQNRKLIAEVSLKNPLPVPLLGCIFTVEGAGLTKDQKSVEVPDPVEAGEQAKVRVDLLPTEVGLHKLVVNFECDKLKAVKGYRNVIIGPA
